Target: T1, rat trace amine receptor (Rattus norvegicus, UniProt Q923Y9)
T1 construct: HEK293 cells stably transfected with the pcDNA3.1/V5/His-TOPO expression vector containing the full-length rat cDNA clone described above; expressed in transfected cells
Format: cell-based

Sequences of proteins named here, by UniProt entry; tags and fusion partners are left off.
UniProt Q923Y9, whole entry: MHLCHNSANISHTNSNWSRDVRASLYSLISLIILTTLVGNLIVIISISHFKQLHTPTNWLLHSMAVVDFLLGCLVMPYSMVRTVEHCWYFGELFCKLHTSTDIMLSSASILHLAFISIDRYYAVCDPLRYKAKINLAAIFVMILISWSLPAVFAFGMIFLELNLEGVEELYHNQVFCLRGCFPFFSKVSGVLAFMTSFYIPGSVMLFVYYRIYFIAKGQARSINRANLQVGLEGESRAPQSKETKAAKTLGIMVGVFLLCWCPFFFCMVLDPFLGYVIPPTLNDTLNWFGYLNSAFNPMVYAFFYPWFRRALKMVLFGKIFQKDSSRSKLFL

Structure (SMILES): CCN(CC)C(=O)N[C@H]1C=C2c3cccc4[nH]cc(c34)C[C@H]2N(C)C1 [lisuride]
- activation of the trace amine receptor / cAMP production, in words: potently activate
